PubChem BioAssay AID1259308 – NCATS | 2017

Test: 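Genes whose loss raises luciferase production in HEK293 cells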 (primary screen)
Cell system: human HEK293 embryonic kidney cells stably expressing firefly luciferase (HEK-CMV-Luc2-Hygro)
Reagents: single siRNA against human genes, 0.8 pmol siRNA per well
Timing: 72 h
Read-out: 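Luciferase light (ONE-Glo) measured on one replicate plate set and viability (CellTiter-Glo) on the other, scaled to a negative control siRNA, with robust z-scores and luciferase per cell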
Direction: total luciferase, z-score and total luciferase, % of control: higher = more reporter protein produced; luciferase per cell, z-score: higher = more reporter output per viable cell
Hit rule: 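An siRNA counts as active if its total luciferase robust z-score exceeds 3; genes with two or more such siRNAs out of three were retested with fresh siRNAs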
Meaning of the calls: active = raised luciferase; inactive = no rise
Shown is a random part of about 59,000 reagents. Over the whole deposit, about 1,510 (2.6%) are marked active. 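Calls use total luciferase alone and ignore viability, so some active siRNAs may act by altering cell number.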 Entries without a mark were called inactive. Reagents against one gene are numbered here. Further read-outs or replicates are left out here. No sequences are given here.

total luciferase, z-score	total luciferase, % of control	luciferase per cell, z-score	Target gene	siRNA no.
-0.27	76.5	-0.331	CD27 (CD27 molecule)	1
0.697	95.7	-0.406	CD27 (CD27 molecule)	2
1.51	112	0.802	CD27 (CD27 molecule)	3
0.593	93.7	0.476	LINC02906 (long independently transcribed non-coding RNA 2906)	1
0.482	91.5	0.244	LINC02906 (long independently transcribed non-coding RNA 2906)	2
1.88	119	2.33	LINC02906 (long independently transcribed non-coding RNA 2906)	3
-2.77	26.8	-4.49	DAB1 (DAB adaptor protein 1)	1
1.53	112	1.02	DAB1 (DAB adaptor protein 1)	2
0.883	99.5	-0.323	DAB1 (DAB adaptor protein 1)	3
1.64	115	0.861	APLNR (apelin receptor)	1
0.306	88	0.556	APLNR (apelin receptor)	2
-0.169	78.5	-0.285	APLNR (apelin receptor)	3
0.0343	82.6	-0.274	HEXD (hexosaminidase D)	1
0.896	99.7	1.11	HEXD (hexosaminidase D)	2
0.173	85.3	0.0131	HEXD (hexosaminidase D)	3
1.05	103	1.2	HACL1 (2-hydroxyacyl-CoA lyase 1)	1
-0.569	70.6	-0.732	HACL1 (2-hydroxyacyl-CoA lyase 1)	2
1.37	109	1.08	HACL1 (2-hydroxyacyl-CoA lyase 1)	3
0.945	101	0.395	ERMARD (ER membrane associated RNA degradation)	1
0.368	89.2	-0.231	ERMARD (ER membrane associated RNA degradation)	2
-0.251	76.9	-1.04	ERMARD (ER membrane associated RNA degradation)	3
0.0227	82.3	-0.0339	SSX2 (SSX family member 2)	1
1.45	111	1.59	SSX2 (SSX family member 2)	2
-0.0755	80.4	-0.481	SSX2 (SSX family member 2)	3
0.844	98.7	0.268	LINC02167 (long independently transcribed non-coding RNA 2167)	1
0.464	91.1	-0.403	LINC02167 (long independently transcribed non-coding RNA 2167)	2
-0.595	70.1	-0.459	LINC02167 (long independently transcribed non-coding RNA 2167)	3
1.39	110	0.765	XRCC3 (X-ray repair cross complementing 3)	1
-0.561	70.7	-0.91	XRCC3 (X-ray repair cross complementing 3)	2
-0.278	76.4	-0.792	XRCC3 (X-ray repair cross complementing 3)	3
1.32	108	1.58	XRCC3 (X-ray repair cross complementing 3)	4
0.675	95.3	0.833	XRCC3 (X-ray repair cross complementing 3)	5
-1.57	50.8	-0.694	XRCC3 (X-ray repair cross complementing 3)	6
-0.912	63.7	-0.696	SEC14L4 (SEC14 like lipid binding 4)	1
0.696	95.7	0.329	SEC14L4 (SEC14 like lipid binding 4)	2
-1.3	56	-0.173	SEC14L4 (SEC14 like lipid binding 4)	3
-1.19	58.2	-1.57	GCN1 (GCN1 activator of EIF2AK4)	1
0.309	88	1.45	GCN1 (GCN1 activator of EIF2AK4)	2
-0.65	69	-0.763	GCN1 (GCN1 activator of EIF2AK4)	3
0.0345	82.6	-0.285	ITM2B (integral membrane protein 2B)	1
0.0533	82.9	0.206	ITM2B (integral membrane protein 2B)	2
-0.209	77.7	0.325	ITM2B (integral membrane protein 2B)	3
-1.03	61.5	0.323	AGVR6190 (retired record)	1
-0.606	69.8	-0.129	AGVR6190 (retired record)	2
-0.499	72	-0.689	AGVR6190 (retired record)	3
2.04	122	1.05	PLAC8 (placenta associated 8)	1
0.507	92	0.751	PLAC8 (placenta associated 8)	2
-1.33	55.4	-0.266	PLAC8 (placenta associated 8)	3
0.775	97.3	-0.0643	PARP10 (poly(ADP-ribose) polymerase family member 10)	1
-1.51	51.8	-0.708	PARP10 (poly(ADP-ribose) polymerase family member 10)	2
-0.324	75.4	0.437	PARP10 (poly(ADP-ribose) polymerase family member 10)	3
2.06	123	1.65	ZFP62 (ZFP62 zinc finger protein)	1
-0.54	71.1	-0.738	ZFP62 (ZFP62 zinc finger protein)	2
0.421	90.3	0.255	ZFP62 (ZFP62 zinc finger protein)	3
-0.0368	81.2	-0.472	ALDH6A1 (aldehyde dehydrogenase 6 family member A1)	1
-2.33	35.6	-1.8	ALDH6A1 (aldehyde dehydrogenase 6 family member A1)	2
-0.811	65.8	-0.829	ALDH6A1 (aldehyde dehydrogenase 6 family member A1)	3

A run of entries from the list above:
total luciferase, z-score	total luciferase, % of control	luciferase per cell, z-score	Target gene	siRNA no.
-1.03	61.5	0.323	AGVR6190 (retired record)	1
-0.606	69.8	-0.129	AGVR6190 (retired record)	2
-0.499	72	-0.689	AGVR6190 (retired record)	3
2.04	122	1.05	PLAC8 (placenta associated 8)	1
0.507	92	0.751	PLAC8 (placenta associated 8)	2
-1.33	55.4	-0.266	PLAC8 (placenta associated 8)	3
0.775	97.3	-0.0643	PARP10 (poly(ADP-ribose) polymerase family member 10)	1
